No constants are given. Whether binding was seen depends on the method and setting. Binding seen in cells or lysates may run through a third protein. Here binding means that the protein was enriched with, or labelled near, the bait; the list need not be complete.
Columns and labels:
TbNup132 (T. brucei) = TbNup132 (T. brucei) (UniProt Q57XP4); assay: affinity purification with mass spectrometry; GFP-tagged Nup (in situ, one allele) as handle, from clarified lysate of cryomilled T. brucei on magnetic beads with polyclonal llama anti-GFP antibodies, 1 hr at 4°C, three washes with extraction buffer; extraction buffer chosen for each handle (S1 Table); SDS-PAGE, Coomassie, bands identified by MS
TbSec13 (T. brucei) = TbSec13 (T. brucei) (UniProt Q388I4); assay: as above

binding (TbNup132 (T. brucei))	binding (TbSec13 (T. brucei))	Substance
binds	–	TbSec13 (from UniProt Q388I4)
–	binds	TbNup132 (from UniProt Q57XP4)

Source: publication PMC4758718
